# Percent effect of library compounds

By UniProt entry, the sequences of proteins in these tests, tags left out. Residues count along the entry.
UniProt A4I591, 1-473: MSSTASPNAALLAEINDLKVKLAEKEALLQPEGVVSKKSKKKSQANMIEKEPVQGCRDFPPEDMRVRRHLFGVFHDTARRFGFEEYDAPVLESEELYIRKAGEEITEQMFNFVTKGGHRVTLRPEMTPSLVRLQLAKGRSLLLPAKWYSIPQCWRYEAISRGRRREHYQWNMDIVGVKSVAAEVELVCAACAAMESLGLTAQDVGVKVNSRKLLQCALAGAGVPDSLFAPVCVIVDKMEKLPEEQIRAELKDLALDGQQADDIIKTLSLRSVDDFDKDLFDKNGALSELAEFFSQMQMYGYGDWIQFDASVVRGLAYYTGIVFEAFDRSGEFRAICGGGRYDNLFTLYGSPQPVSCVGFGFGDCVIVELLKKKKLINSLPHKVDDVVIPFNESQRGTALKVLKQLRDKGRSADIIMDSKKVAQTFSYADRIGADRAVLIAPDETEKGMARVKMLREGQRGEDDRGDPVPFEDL
UniProt I6X8D2, whole entry: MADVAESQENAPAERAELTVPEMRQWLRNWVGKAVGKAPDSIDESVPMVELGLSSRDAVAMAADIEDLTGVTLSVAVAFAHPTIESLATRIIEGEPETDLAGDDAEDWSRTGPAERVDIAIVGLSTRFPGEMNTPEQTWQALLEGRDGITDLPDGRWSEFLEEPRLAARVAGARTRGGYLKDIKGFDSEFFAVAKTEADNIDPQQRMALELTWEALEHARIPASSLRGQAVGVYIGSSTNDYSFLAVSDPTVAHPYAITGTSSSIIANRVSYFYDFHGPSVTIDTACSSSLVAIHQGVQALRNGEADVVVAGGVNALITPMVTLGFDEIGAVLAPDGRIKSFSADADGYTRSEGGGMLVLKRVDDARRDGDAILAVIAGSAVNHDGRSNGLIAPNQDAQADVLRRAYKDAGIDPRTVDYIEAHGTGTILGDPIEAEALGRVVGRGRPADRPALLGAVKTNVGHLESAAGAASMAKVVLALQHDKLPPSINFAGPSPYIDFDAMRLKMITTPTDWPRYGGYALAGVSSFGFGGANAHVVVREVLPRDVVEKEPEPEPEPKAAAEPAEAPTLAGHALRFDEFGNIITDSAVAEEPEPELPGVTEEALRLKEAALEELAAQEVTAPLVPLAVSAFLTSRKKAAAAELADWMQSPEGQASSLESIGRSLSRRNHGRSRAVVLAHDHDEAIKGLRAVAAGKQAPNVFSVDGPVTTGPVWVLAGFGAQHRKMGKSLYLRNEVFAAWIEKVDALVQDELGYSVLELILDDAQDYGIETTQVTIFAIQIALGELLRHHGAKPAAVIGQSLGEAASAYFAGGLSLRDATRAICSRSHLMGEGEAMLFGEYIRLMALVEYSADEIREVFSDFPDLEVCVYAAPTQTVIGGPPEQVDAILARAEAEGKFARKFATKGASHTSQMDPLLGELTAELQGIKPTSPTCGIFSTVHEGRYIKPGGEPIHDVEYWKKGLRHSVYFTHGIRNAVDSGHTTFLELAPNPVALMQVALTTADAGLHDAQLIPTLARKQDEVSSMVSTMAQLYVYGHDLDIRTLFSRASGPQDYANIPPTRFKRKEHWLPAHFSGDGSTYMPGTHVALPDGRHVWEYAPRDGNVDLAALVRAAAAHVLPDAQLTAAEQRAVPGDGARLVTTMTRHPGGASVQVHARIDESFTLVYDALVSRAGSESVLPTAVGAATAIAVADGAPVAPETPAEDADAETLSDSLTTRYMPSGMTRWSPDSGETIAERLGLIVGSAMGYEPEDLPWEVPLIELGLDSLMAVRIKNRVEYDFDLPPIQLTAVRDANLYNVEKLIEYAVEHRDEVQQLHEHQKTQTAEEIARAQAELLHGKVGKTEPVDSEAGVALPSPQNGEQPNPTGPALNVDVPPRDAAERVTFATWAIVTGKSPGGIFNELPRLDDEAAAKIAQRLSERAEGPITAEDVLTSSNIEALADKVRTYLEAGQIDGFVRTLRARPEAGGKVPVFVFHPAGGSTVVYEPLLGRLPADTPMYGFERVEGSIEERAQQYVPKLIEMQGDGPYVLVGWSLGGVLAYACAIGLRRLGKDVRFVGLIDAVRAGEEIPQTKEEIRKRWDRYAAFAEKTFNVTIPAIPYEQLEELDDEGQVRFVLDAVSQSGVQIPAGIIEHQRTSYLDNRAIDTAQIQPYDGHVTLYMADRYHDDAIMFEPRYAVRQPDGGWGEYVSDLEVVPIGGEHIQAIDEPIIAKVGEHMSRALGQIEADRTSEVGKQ

The values are deposited in ChEMBL (CHEMBL3988442, “University of Dundee, Small-Polar-MMV Screening Library” (2021)).

A: 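Cell assay of Leishmania donovani living inside macrophages; the read-out is not stated. Tested at 30 µM. Higher reads as stronger inhibition (inferred: compounds with an IC50 in retests scored well above the rest). Size under these conditions: about 69,000 compounds, about 1,000 of them at 50% or above in at least one test.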
B: 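Histidine-tRNA ligase, Leishmania infantum (UniProt A4I591). Enzyme assay of histidyl-tRNA synthetase; the read-out is not stated. Compounds at 30 µM. The record gives no direction; compounds that gave an IC50 in retests scored well above the rest, so higher reads as stronger inhibition. The assay is labelled LdHisRS but filed under L. infantum. Of about 69,000 compounds tested this way, about 410 (0.6%) reached 50% or more in at least one test.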
C: 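Enzyme assay of the thioesterase domain of polyketide synthase 13; the read-out is not stated. Target: Polyketide synthase Pks13, Mycobacterium tuberculosis (UniProt I6X8D2). Concentration: 30 µM. Higher reads as stronger inhibition (inferred from which compounds were picked for retests). About 67,000 compounds were tested under these conditions; 0.46% (about 300) showed 50% or more at least once.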

Values are the deposited “Percent Effect”, in %. The controls that fix the scale are not given in the record; negative values are as filed. The compounds are a random part of those screened. Two or more numbers in one place are separate tests of the same structure; such repeats can differ widely. A dash means the value is not listed here; it may have been measured.

compound,A,B,C
c1c2c(nn1CC1CCOCC1)C(CNC1CCOCC1)OCC2 (configuration not stated),-,12,-11.16
CC(C)(C)C(=O)N1CCCC1(C(=O)N1CCCC1)c1cnccn1 (configuration not stated),0.06842,4.196,10.2
Cc1nc(C(C)C)sc1C(=O)N(C)Cc1cnn(C)c1,-18.69,-7.895,-1.321
O=C(C1SCCc2sccc21)N1CCN(CC(F)F)CC1 (configuration not stated),-13.73,6.25,-3.978
CC(C)C(NC(=O)Cc1ccccc1)C(=O)NCc1ccc(O)nc1 (configuration not stated),-12.29,9.524,-9.427
CC(C)(C)c1ncc(C(=O)NCCNS(C)(=O)=O)s1,20.12,13.39,-9.071
O=C(O)C[C@@H]1CCN(C(=O)c2cccs2)C[C@@H]1CCN1CCCCC1,15.68,27.78,-38.22
Cc1cc(C)n(C2CCCN(C(=O)c3ccc(N(C)C)nn3)C2)n1 (configuration not stated),3.89,15.29,3.199
CCC(CN1CCCC1)n1cncc1-c1cnn(-c2ccc(F)cc2)c1.Cl (configuration not stated),14.1,-,-
O=C(Nc1cc(N2CCOCC2)ncn1)c1cnccn1,1.336 & 7.441,12.17,-9.402
O=C(O)c1ccccc1-n1cc(CN2CCOC(c3cc[nH]n3)C2)cn1 (configuration not stated),4.847,10.07,-2.431
CCc1noc(CNc2c(F)cccc2-n2cccn2)n1,27.61,21.21,-32.23
Cc1ccc2c(n1)N(Cc1cccnc1)CCN(C1CCOCC1)C2.O=C(O)C(F)(F)F.O=C(O)C(F)(F)F.O=C(O)C(F)(F)F,9.358,-,-
Cl.Cl.[H][C@@]12CN(Cc3ccccc3)C[C@]1([H])[C@@H]2CN,3.608,-,-
Cc1cc(OCC(=O)N2CCCC(c3nc(C)c(C)s3)C2)no1 (configuration not stated),-17.43,13.79,-
COc1ccccc1CC(=O)N1CCCC1Cn1nc(C)cc1C (configuration not stated),13.95,-0.8772,-4.746
COc1cc2c(cc1CNCc1cccnc1-n1cccn1)OC(C)C2 (configuration not stated),-,-46.67,-22.39
CCCN1CCN(C(=O)c2ccc(Cn3cc(Br)cn3)cc2)CC1,6.279,17.65,-18.41
CCCOc1ccc(CN)c(OC(F)F)c1,-34.44,0,1.171
O=C(NCC1(O)CCSC1)c1ccn(-c2ccccc2F)n1 (configuration not stated),26.96,13.33,-30.79
CC(C)CCC(=O)NCc1ccc(N2CCCCC2)cc1,-3.074,14.58,-18.57
CC(C1CC1)N(C)C(=O)c1cnc(-c2ccc3c(c2)OCO3)s1 (configuration not stated),17.79,7.692,-12.96
COCCCSc1ccc(NC(=O)Nc2cn[nH]c2)cc1,-6.433,-0.8403,26.1
COC(C)(C)C(=O)N1Cc2cnc(C(C)(C)C)nc2C1,4.953,22.37,-24.99
CC(C)NC(=O)CC1COC2(CCN(Cc3ccco3)CC2)C1 (configuration not stated),6.314,11.93,-
CC(C)CCC(=O)N1CCN(C(=O)c2ccc(-n3cccn3)cc2)CC1,11.23,6.25,-5.253
CC(=O)N[C@@H]1CN(C(=O)CC2CCOCC2)C[C@H]1O,21.25,9.929,-5.484
CN(Cc1ccco1)C(=O)Nc1cc(C(F)(F)F)c[nH]c1=O,34.09,9.649,-18.5
O=C(O)C(F)(F)F.[H][C@@]12CN(CC(C)C)C[C@]1([H])C(=O)N(CC)C21CCN(S(C)(=O)=O)CC1,-9.417 & 18.54,-,-
CCO[C@H]1C[C@@H](O)C12CCN(C1CCN(c3ccccc3)CC1)CC2,4.436,4.082,-2.492
Oc1ccc(-c2c(-c3ccccc3)ncn2C2CCNC2)cc1 (configuration not stated),-26.99,5.128,-1.307
O=C(O)C(F)(F)F.O=C(c1cccnc1)N1CCc2ncnc(N3CCOCC3)c2CC1,30.19,-,-
CC(C)c1nn(C)c(Cl)c1CNCc1ccc(N(C)C)nc1.Cl,28.82,-,-
COCC(=O)N1CCN(C(=O)Cc2cccs2)[C@H]2CS(=O)(=O)C[C@H]21,-,10.2,-3.716
CN(C)c1ccccc1C(=O)N1CCOC2(CNCCOC2)C1 (configuration not stated),13.5,16.8,-5.321
Cc1ccc(CN2CCn3c(CN4CCN(C)CC4)cnc3C2C)s1.O=C(O)C(F)(F)F.O=C(O)C(F)(F)F.O=C(O)C(F)(F)F (configuration not stated),8.519,-,-
O=C(NCC1CCS(=O)(=O)C1)N(Cc1ccccn1)C1CC1 (configuration not stated),2.864,28,-
CC(C)N1CCN(C(=O)c2csc3nc(-c4ccc(Cl)cc4)cn23)CC1,11.51,12.2,-2.253
O=C(O)C(F)(F)F.[H][C@@]12CN(C(=O)c3ccoc3)C[C@]1([H])OCCN2C(C)C,-20.99,-,-
COC(C)c1noc(CN(C)c2ncc(Br)cn2)n1 (configuration not stated),6.102,7.463,2.416
Cc1ccc2oc([C@H]3CCN(Cc4ccccc4)C3)nc2c1,-23.53,13.51,-
CCc1csc(C2CCCN(C(=O)c3ccccn3)C2)n1 (configuration not stated),4.861,6.957,-17.31
[H][C@]12CCCCN1CCC[C@@]2(O)Cn1cnc2cc(OC)ccc21,32.41,-,-
Cn1ccnc1CNc1ccc(F)c(N2CCCS2(=O)=O)c1,14.89,19.18,-3.283

The last 6 entries again:

compound,A,B,C
O=C(O)C(F)(F)F.[H][C@@]12CN(C(=O)c3ccoc3)C[C@]1([H])OCCN2C(C)C,-20.99,-,-
COC(C)c1noc(CN(C)c2ncc(Br)cn2)n1 (configuration not stated),6.102,7.463,2.416
Cc1ccc2oc([C@H]3CCN(Cc4ccccc4)C3)nc2c1,-23.53,13.51,-
CCc1csc(C2CCCN(C(=O)c3ccccn3)C2)n1 (configuration not stated),4.861,6.957,-17.31
[H][C@]12CCCCN1CCC[C@@]2(O)Cn1cnc2cc(OC)ccc21,32.41,-,-
Cn1ccnc1CNc1ccc(F)c(N2CCCS2(=O)=O)c1,14.89,19.18,-3.283